Source: article PMC6970983

Legend:
[1] = target: T1, LAT member 2 (non-T cell activation linker) (mouse (endogenous in BMMCs)) (UniProt Q9JHL0); assay: co-IP; postnuclear supernatants of IgE-sensitized BMMCs, non-activated or activated with antigen (TNP-BSA 0.25 μg/ml, 5 min); lysis buffer 25 mM Tris-HCl pH 7.5, 140 mM NaCl, 2 mM EDTA, 0.5% Triton X-100; LAT1 or LAT2 precipitated with specific antibodies on UltraLink protein A beads; blot with 4.1R-specific antibody
T1 sequence: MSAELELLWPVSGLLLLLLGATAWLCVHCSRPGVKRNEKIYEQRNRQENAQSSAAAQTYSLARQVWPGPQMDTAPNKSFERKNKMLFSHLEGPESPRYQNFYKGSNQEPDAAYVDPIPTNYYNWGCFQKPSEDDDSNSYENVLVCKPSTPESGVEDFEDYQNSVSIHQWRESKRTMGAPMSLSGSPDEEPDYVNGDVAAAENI

[2] = target: T2, linker for activation of T cell family (LAT) member 1 (mouse (endogenous in BMMCs)) (UniProt O54957); assay: as above
T2 sequence: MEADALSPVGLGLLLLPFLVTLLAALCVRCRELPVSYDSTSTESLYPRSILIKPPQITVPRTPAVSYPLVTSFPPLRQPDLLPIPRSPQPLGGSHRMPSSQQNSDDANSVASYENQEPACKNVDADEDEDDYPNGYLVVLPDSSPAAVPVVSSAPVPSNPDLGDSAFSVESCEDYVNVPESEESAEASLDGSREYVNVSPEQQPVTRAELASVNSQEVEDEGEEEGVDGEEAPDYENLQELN

For “Cytoskeletal protein 4.1R (mouse (endogenous in BMMCs))”, the binding [1] was “binds” and the binding [2] was “binds”.

These are yes or no findings as the source states them, for the method shown. In cells and extracts the contact can be indirect. A result given as binding can be weak or reduced; the word gives no strength.
